According to PubChem BioAssay AID504834 (National Center for Advancing Translational Sciences (NCATS), 2011):
The campaign covered roughly 320,000 compounds. About 22,000 (6.9%) were called active. Inconclusive results, whose numbers are uncertain, are shown with a selection of clear calls. Calls follow the shape of the dose curve; as a rule, active = well fitted inhibition curve with a large enough effect; inconclusive = small, poorly fitted or top-dose-only effect, or another doubt; inactive = no such curve, though single readings can be large or run the other way. Where the call is inconclusive, the potency comes from a doubtful curve fit.

assay: Primary qHTS for delayed death inhibitors of the malarial parasite plastid, 96 hour incubation; details: P. falciparum luciferase reporter growth; series mostly up to 28.7 µM
Procedure, shortened: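 P. falciparum expressing integrated firefly luciferase grown in erythrocytes (2% hematocrit, 0.05% parasitemia final) with compounds for 96 hours at 37 C, 5% CO2. Growth inhibition read as loss of luminescence after adding luciferase detection reagent.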
Potency is read from the fitted curve at half-maximal effect.

| Compound | Potency |
| --- | --- |
| COc1ccc2c(C)c(C(=O)N3CCN(Cc4ccccc4)CC3)oc2c1 | inconclusive: 18.5 µM [inhibitor, single point] |
| O=C(c1ccc2nc[nH]c2c1)N1CCN(S(=O)(=O)c2cccc(F)c2)CC1 | inconclusive: 11.7 µM [inhibitor, single point] |
| COc1ccc(CC(=S)NCCc2ccccc2)cc1 | inactive |
| COc1ccccc1NC(=O)C1C2C=CC(O2)C1C(=O)O (stereo not drawn) | inconclusive: 8.28 µM [inhibitor, partial curve, poor fit] |
| CCn1c(COc2ccccc2C)nnc1SCC(=O)N1CCN(c2ccccc2)CC1 | inconclusive: 13.1 µM [inhibitor, single point] |
| O=C(N/C(=C/C=C/c1ccccc1)C(=O)N1CCOCC1)c1ccccc1Cl | inconclusive: 16.5 µM [inhibitor, single point] |
| CC(=O)c1ccc(NC(=O)c2cccc(N3C(=O)c4ccccc4C3=O)c2)cc1 | inactive |
| O=C(NC(=S)NCc1cccnc1)c1cc(Br)ccc1Cl | inconclusive: 10.4 µM [inhibitor, single point] |
| NNc1nc(N)c2c(n1)-c1ccccc1CC21CCCC1 | active: 1.65 µM |
| COc1ccc2cc(C(=O)NCc3ccccc3)c(=Nc3ccc(C(=O)O)cc3)oc2c1 | active: 0.415 µM |
| CN(CC(=O)Nc1ccc(S(=O)(=O)N2CCCC2)cc1)CC(=O)Nc1ccc(F)c(F)c1F | inconclusive: 5.86 µM [inhibitor, partial curve, poor fit] |
| CCc1n[nH]c(=S)n1/N=C/c1ccc(N(C)c2ccccc2)cc1 | inconclusive: 3.7 µM [inhibitor, partial curve, poor fit] |
| O=C(CCC1CCN(C(=O)c2ccco2)CC1)NCc1ccc(F)cc1 | inconclusive: 14.7 µM [inhibitor, single point] |
| CCc1ccccc1NC(=O)c1cc(S(=O)(=O)N(C)C)ccc1N1CCCC1 | inconclusive: 10.4 µM [inhibitor, partial curve, poor fit] |
| CC(Sc1nc2ncc(Cl)cc2[nH]1)C(=O)NC1(C#N)CCCCC1 (stereo not drawn) | inactive |
| CC(C)c1ccc(NC(=O)[C@@H](NC(=O)N2CC(=O)Nc3ccccc32)C(C)C)cc1 | inconclusive: 18.5 µM [inhibitor, single point] |
| COc1ccc(CC2(C)OC(c3ccc(C)cc3)=NN2C(C)=O)cc1 (stereo not drawn) | inconclusive: 18.5 µM [inhibitor, single point] |
| COc1cc(/C=N/NC(=O)c2ccccn2)ccc1OC(=O)c1cccs1 | inconclusive: 10.4 µM [inhibitor, partial curve, poor fit] |
| CCOC(=O)C1CCN(C(=O)c2ccc(OC3CCN(C(=O)CCOC)CC3)cc2)CC1 | inactive |
| CC(=O)Nc1ccc(-c2csc(NC(=O)Cc3cccc(F)c3)n2)cc1 | inactive |
| Cc1cccc(NC(=O)CSc2nnc(-c3ccc(S(=O)(=O)N4CCOCC4)cc3)n2C)c1 | inconclusive: 0.0657 µM [inhibitor, full curve, poor fit] |
| C1=C(c2ccccc2)Nc2nnnn2C1c1cccs1 (stereo not drawn) | inactive |

| Compound | Potency |
| --- | --- |
| Cc1c(Cl)cccc1Nc1nc(N)nc(CSc2ncccn2)n1 | inconclusive: 10.4 µM [inhibitor, single point] |
| Cc1ccc(NC(=O)CN(C)CC(=O)Nc2ccc(N3CCOCC3)cc2)c(C)c1 | inconclusive: 16.5 µM [inhibitor, single point] |
| Cc1nc2ccccc2nc(C)c1=NOCc1ccc(C#N)cc1 | inconclusive: 18.5 µM [inhibitor, single point] |
| COc1ccc(CCn2c(=N)c(C(=O)NCCN3CCOCC3)cc3c(=O)n4cccc(C)c4nc32)cc1OC | active: 0.415 µM |
| c1ccc2c(c1)oc1c(NCCCn3ccnc3)ncnc12 | inconclusive: 0.329 µM [inhibitor, full curve] |
| COc1ccc(CCNC(=O)Cn2cc(C(F)(F)F)cc(Cl)c2=O)cc1OC | inconclusive: 1.17 µM [inhibitor, partial curve, poor fit] |
| Cc1ccc(CNC(=O)C(Cc2ccccc2)n2cccc2)cc1 (stereo not drawn) | inconclusive: 18.5 µM [inhibitor, single point] |
| COc1cccc(N2CCN(CC(=O)Nc3ccnn3C3CCCC3)CC2)c1 | inactive |
| CCCCCCN1CC(C(=O)OCC)C(=O)C1=O (stereo not drawn) | inconclusive: 18.5 µM [inhibitor, single point] |
| CS(=O)(=O)N1N=C(c2ccccc2)CC1c1ccc2nccnc2c1 (stereo not drawn) | inactive |
| CC(=O)N(C1=C(Cl)C(=O)c2ccccc2C1=O)C1CCCCC1 | inconclusive: 9.28 µM [inhibitor, partial curve] |
| COc1cc(C(=O)NC2CCN(CC(=O)NC3CCCCC3C)CC2)cc(OC)c1OC (stereo not drawn) | inconclusive: 16.5 µM [inhibitor, single point] |
| CC(NC(=O)c1cccs1)C(S)c1ccccc1 (stereo not drawn) | inconclusive: 18.5 µM [inhibitor, single point] |
| CCCC(C(=O)NC1CCCCC1)N(CC1CCCO1)C(=O)CNS(=O)(=O)c1ccc(F)cc1 (stereo not drawn) | inconclusive: 8.28 µM [inhibitor, partial curve, poor fit] |
| COc1ccc(NC2=C(c3ccc(OC)cc3)C(=O)c3ccccc32)cc1 | inconclusive: 3.7 µM [inhibitor, single point] |
| CC(C)COC(=O)Nc1nnc(SCc2ccccc2F)s1 | inconclusive: 18.5 µM [inhibitor, single point] |
| O=C(Nc1ccc2nc(C3CC3)n(Cc3ccccc3)c(=O)c2c1)C1CC1 | inactive |
| Cc1ccc(S(=O)(=O)N2CCN(C(=O)CN3C(=O)c4ccc([N+](=O)[O-])cc4C3=O)CC2)c(C)c1 | inactive |
| CCCCN1C(=O)c2ccccc2C1C(=O)NC1CCCC1 (stereo not drawn) | inconclusive: 10.4 µM [inhibitor, single point] |
| Cc1ccc(Nc2nc(-c3ccncc3)nc3ccccc23)cc1 | inconclusive: 1.04 µM [inhibitor, partial curve] |
| CCNC(=O)/C(=C/c1cccc([N+](=O)[O-])c1)NC(=O)c1ccc(C)cc1 | inactive |

Of the compounds above, these have a thiophene ring, fused or not:

| Compound | Potency |
| --- | --- |
| COc1cc(/C=N/NC(=O)c2ccccn2)ccc1OC(=O)c1cccs1 | inconclusive: 10.4 µM [inhibitor, partial curve, poor fit] |
| C1=C(c2ccccc2)Nc2nnnn2C1c1cccs1 (stereo not drawn) | inactive |
| CC(NC(=O)c1cccs1)C(S)c1ccccc1 (stereo not drawn) | inconclusive: 18.5 µM [inhibitor, single point] |
